In patent publication US11733246B2, “Compositions, imaging, and therapeutic methods targeting folate receptor 1 (FOLR1)” (Indi Molecular, Inc., priority 2020, dated 2023):
Read-outs that look alike come from different tables or passages of the source. For part of these data: Not every detail of the peptide structures is certain; ends, links or a residue may be inferred. For part of these data: At least one compound was matched to its structure with a doubt left. Some results were stated once for a whole list of compounds, not compound by compound. Numbered stars: 1 amine (or outer) side, 2 acyl side, 3 side chain; on linkers, the order of the positions; unused ones are H or OH. Bridge positions count the residues as written; N and C are the ends. Square brackets hold non-standard residues; d marks the D form. Triazole bridges read from a SMILES are 1,4-linked. Peptide text beside a SMILES is read from it. * marks the point of attachment. DOTA = O=C(O)CN1CCN(CC(=O)O)CCN(CC(=O)*)CCN(CC(=O)O)CC1; Pteroyl = Nc1nc2ncc(CNc3ccc(C(=O)*)cc3)nc2c(=O)[nH]1; Biotin = O=C1N[C@H]2[C@H](CS[C@H]2CCCCC(=O)*)N1; PEG10 = NCCOCCOCCOCCOCCOCCOCCOCCOCCOCCOCCC(=O)O; Lys(N3) = [N-]=[N+]=NCCCC[C@H](N)C(=O)O; γGlu = O=C(O)[C@H](CCC(=O)[*:2])N[*:1]; AEEEA = NCCOCCOCCOCC(=O)O; Pra = C#CC[C@H](N)C(=O)O

Protein sequences, listed by entry. Tags and fused reporters are not part of them. Residues count along the entry.
UniProt P15328, 25-234: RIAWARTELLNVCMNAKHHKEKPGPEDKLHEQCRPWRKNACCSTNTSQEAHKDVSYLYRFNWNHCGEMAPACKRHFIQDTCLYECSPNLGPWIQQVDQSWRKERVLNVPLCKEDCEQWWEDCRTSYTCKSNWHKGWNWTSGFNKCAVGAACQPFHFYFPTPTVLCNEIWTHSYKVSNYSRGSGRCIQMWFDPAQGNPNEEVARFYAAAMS
UniProt P02768, 25-609: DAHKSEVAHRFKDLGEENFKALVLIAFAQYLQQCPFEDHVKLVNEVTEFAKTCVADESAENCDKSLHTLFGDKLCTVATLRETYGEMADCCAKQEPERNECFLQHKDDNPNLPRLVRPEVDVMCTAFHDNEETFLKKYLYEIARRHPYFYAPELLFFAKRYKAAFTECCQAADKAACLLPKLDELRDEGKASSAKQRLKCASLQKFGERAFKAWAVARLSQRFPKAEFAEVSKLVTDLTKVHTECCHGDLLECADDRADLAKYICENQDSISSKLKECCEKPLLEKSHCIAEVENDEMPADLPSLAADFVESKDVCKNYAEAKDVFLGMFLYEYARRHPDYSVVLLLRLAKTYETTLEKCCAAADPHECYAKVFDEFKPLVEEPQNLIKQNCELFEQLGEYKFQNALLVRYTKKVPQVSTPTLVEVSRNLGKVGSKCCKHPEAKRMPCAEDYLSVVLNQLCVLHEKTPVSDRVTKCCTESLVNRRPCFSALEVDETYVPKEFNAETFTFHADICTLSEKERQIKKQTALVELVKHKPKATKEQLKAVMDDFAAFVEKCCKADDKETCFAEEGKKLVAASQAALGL

Assays:
FOLR1 [1] = target: T1, FOLR1 (Homo sapiens, UniProt P15328); test: ELISA assay of FOLR1 binding
T1 construct: His; purchased SinoBiological 11241-H08H
From the text: FIG. 5 is a diagram of ELISA assay of FOLR1 binding of heterobiligands.
Nonclinical studies were first conducted with Folate-hshta-PEG10-PEG10-K(Biotin), where Folate-hshta is the targeting heterobiligand, PEG10 is a deca(ethylene glycol) linker, and K(Biotin) is the detection label.

FOLR1 [2] = target: T1, FOLR1; test: Competition ELISA with folic acid; format: binding
Method: A competition experiment was conducted to further understand the binding kinetics of the lead heterobiligand (folate-hshta (SEQ ID NO:6) Nterm heterobiligand).
Nonclinical studies were first conducted with Folate-hshta-PEG10-PEG10-K(Biotin), where Folate-hshta is the targeting heterobiligand, PEG10 is a deca(ethylene glycol) linker, and K(Biotin) is the detection label. […] Cross reactivity with the murine folate receptor was also observed. […] In the merged image, purple puncta were observed indicating co-localization of internalized heterobiligand with early endosomes (Rab5a+ vesicles) in OVCAR3 cells.

human serum albumin = human serum albumin (Homo sapiens, UniProt P02768); conditions: see WO 2011/095545; cited from earlier work

Work on `C[C@H](O)[C@H]1NC(=O)[C@@H](Cc2c[nH]cn2)NC(=O)[C@@H](CO)NC(=O)[C@@H](Cc2c[nH]cn2)NC(=O)[C@@H](NC(=O)CC[C@H](NC(=O)c2ccc(NCc3cnc4nc(N)[nH]c(=O)c4n3)cc2)C(=O)O)Cc2cn(nn2)CCCC[C@@H](C(=O)NCCOCCOCCOCCOCCOCCOCCOCCOCCOCCOCCC(=O)NCCOCCOCCOCCOCCOCCOCCOCCOCCOCCOCCC(=O)N[C@@H](CCCCNC(=O)CCCC[C@@H]2SC[C@@H]3NC(=O)N[C@@H]32)C(N)=O)NC(=O)[C@@H](C)NC1=O` [Folate-hshta Nterm, Folate-hshta-PEG10-PEG10-K(Biotin)] ({Pteroyl-γGlu}-[Pra][dH][dS][dH][dT][dA][Lys(N3)][PEG10][PEG10]K(Biotin)-NH2; triazole 1-7) yielded an EC50 (FOLR1 [1]; albumin binder / DOTA tagged biotin-labeled heterobiligands, read-out: EC50) of 0.065 nM and an EC50 (FOLR1 [1]; human FOLR protein, read-out: EC50 in ELISA) of 0.065 nM.

With `C[C@H](O)[C@H]1NC(=O)[C@@H](Cc2c[nH]cn2)NC(=O)[C@@H](CO)NC(=O)[C@@H](Cc2c[nH]cn2)NC(=O)[C@@H](NC(=O)CC[C@H](NC(=O)c2ccc(NCc3cnc4nc(N)[nH]c(=O)c4n3)cc2)C(=O)O)Cc2cn(nn2)CCCC[C@@H](C(=O)NCC(=O)N[C@@H](Cc2ccccc2)C(=O)N[C@@H](CCCCNC(=O)CN2CCN(CC(=O)O)CCN(CC(=O)O)CCN(CC(=O)O)CC2)C(=O)O)NC(=O)[C@@H](C)NC1=O` [Indi ^177Lu-7327, Folate-hshta-G-F-K(^177Lu-DOTA)-OH, metal not drawn] ({Pteroyl-γGlu}-[Pra][dH][dS][dH][dT][dA][Lys(N3)]GFK(DOTA)-OH; triazole 1-7) the “outcompeting native folate for receptor binding” value (FOLR1 [2]) was “approximately 500 fold”.

For `C[C@H](O)[C@H]1NC(=O)[C@@H](Cc2c[nH]cn2)NC(=O)[C@@H](CO)NC(=O)[C@@H](Cc2c[nH]cn2)NC(=O)[C@@H](NC(=O)COCCOCCOCCNC(=O)CCCC[C@@H]2SC[C@@H]3NC(=O)N[C@@H]32)Cc2cn(nn2)CCCC[C@@H](C(N)=O)NC(=O)[C@@H](C)NC1=O` [hshta] ({Biotin-AEEEA}-[Pra][dH][dS][dH][dT][dA][Lys(N3)]-NH2; triazole 1-7), the “affinity for recombinant human FOLR protein in ELISA” value (FOLR1 [1]; tested alone) was “low micromolar affinity”.

`C[C@H](O)[C@H]1NC(=O)[C@@H](CCC(=O)O)NC(=O)[C@@H](CCC(=O)O)NC(=O)[C@@H](Cc2ccc(O)cc2)NC(=O)[C@@H](CCCCN)NC(=O)[C@@H](NC(=O)COCCOCCOCCNC(=O)CCCC[C@@H]2SC[C@@H]3NC(=O)N[C@@H]32)Cc2cn(nn2)CCCC[C@@H](C(N)=O)NC1=O` [kyeet] ({Biotin-AEEEA}-[Pra][dK][dY][dE][dE][dT][Lys(N3)]-NH2; triazole 1-7) gave an EC50 (FOLR1 [1]; read-out: EC50 (ELISA, FOLR1)) greater than 10000 nM.

For “WWEQDRDWDFDVFGGGTP [89D03, reference compound]”, the Kd (human serum albumin) is listed as no more than 20 nM.
